# Data as given in PubChem BioAssay AID1259425 (University of Nebraska Medical Center, 2018).
# Purpose: 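Seek colon cancer weak points whose silencing resembles KSR1 loss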 (primary screen)
# Cell system: HCT116 human colon cancer cells
# Reagent: siRNA pool against human genes, 50 nM siRNA
# Detection: 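After 50 nM siRNA pool, branched-DNA assay measures six marker transcripts per well, minus blank, normalised to the geometric mean of two housekeeping transcripts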
# Scale: BNIP3L mRNA: higher = more BNIP3L transcript after knockdown; NDRG1 mRNA: higher = more NDRG1 transcript after knockdown; BNIP3 mRNA: higher = more BNIP3 transcript after knockdown; ALDOC mRNA: higher = more ALDOC transcript after knockdown; ACSL5 mRNA: higher = more ACSL5 transcript after knockdown
# The whole screen tested about 14,000 reagents; below is a part drawn at random. Reagent sequences are not shown. Not given: the time to read-out.
target,"BNIP3L mRNA, set 1","NDRG1 mRNA, set 1","BNIP3 mRNA, set 1","ALDOC mRNA, set 1","ACSL5 mRNA, set 1"
FUT8 (fucosyltransferase 8),0.114,0.118,0.211,0.0159,0.117
RRAGA (Ras related GTP binding A),0.124,0.468,0.305,0.0193,0.227
HNF1A (HNF1 homeobox A),0.176,0.217,0.327,0.00848,0.225
CIAPIN1 (cytokine induced apoptosis inhibitor 1),0.208,0.242,0.453,0.0722,0.308
BAHCC1 (BAH domain and coiled-coil containing 1),0.0492,0.166,0.289,0.0208,0.274
FHOD3 (formin homology 2 domain containing 3),0.174,0.105,0.296,0.0558,0.0898
TFPI (tissue factor pathway inhibitor),0.0407,0.0954,0.147,0.0154,0.132
"ZFP91 (ZFP91 zinc finger protein, atypical E3 ubiquitin ligase)",0.0913,0.152,0.302,0.0236,0.32
NBEAL2 (neurobeachin like 2),0.165,0.516,0.396,0.0494,0.0641
PSMG1 (proteasome assembly chaperone 1),0.0365,0.119,0.167,0.0204,0.085
"SYNC (syncoilin, intermediate filament protein)",0.0813,0.38,0.149,0.0614,0.315
CYP1B1 (cytochrome P450 family 1 subfamily B member 1),0.0688,0.0755,0.305,0.0226,0.168
ARHGEF1 (Rho guanine nucleotide exchange factor 1),0.0669,0.0953,0.186,0.0208,0.0818
MORF4L1 (mortality factor 4 like 1),0.128,0.277,0.21,0.0664,0.271
PDE10A (phosphodiesterase 10A),0.136,0.109,0.255,0.0117,0.0609
DPEP2 (dipeptidase 2),0.135,0.0838,0.437,0.0157,0.28
DEFA6 (defensin alpha 6),0.0975,0.24,0.261,0.0352,0.113
UPF3B (UPF3B regulator of nonsense mediated mRNA decay),0.132,0.177,0.207,0.042,0.184
MAB21L2 (mab-21 like 2),0.0949,0.172,0.358,0.00672,0.0427
"ADPRM (ADP-ribose/CDP-alcohol diphosphatase, manganese dependent)",0.0891,0.182,0.326,0.0434,0.185
UQCRH (ubiquinol-cytochrome c reductase hinge protein),0.155,0.461,0.125,0.0274,0.202
PRPF18 (pre-mRNA processing factor 18),0.145,0.0988,0.246,0.0085,0.184
TENT5A (terminal nucleotidyltransferase 5A),0.108,0.434,0.41,0.0115,0.207
MSTO1 (misato mitochondrial distribution and morphology regulator 1),0.0734,0.207,0.27,0.00672,0.12
PRSS33 (serine protease 33),0.254,0.071,0.308,0.0129,0.0866
LEPR (leptin receptor),0.066,0.15,0.268,0.0102,0.12
TBCB (tubulin folding cofactor B),0.0898,0.0789,0.304,0.0229,0.126
TDRD3 (tudor domain containing 3),0.135,0.175,0.233,0.0998,0.243
TASOR (transcription activation suppressor),0.137,0.419,0.307,0.086,0.177
SLC10A7,0.22,0.298,0.233,0.0879,0.403
ESD (esterase D),0.0321,0.129,0.294,0.00159,0.121
AAR2 (AAR2 splicing factor),0.0968,0.423,0.409,0.0472,0.234
HPS5 (HPS5 biogenesis of lysosomal organelles complex 2 subunit 2),0.0584,0.135,0.264,0.00451,0.0767
ZNF747 (zinc finger protein 747),0.112,0.085,0.371,0.0198,0.121
SDHAF3 (succinate dehydrogenase complex assembly factor 3),0.114,0.222,0.256,0.0406,0.295
YJU2B (YJU2 splicing factor homolog B),0.344,0.461,0.446,0.18,0.32
POLR1A (RNA polymerase I subunit A),0.395,1.01,0.554,0.0155,0.568
TACO1 (translational activator of cytochrome c oxidase I),0.0996,0.199,0.313,0.0166,0.16
RAP1GAP (RAP1 GTPase activating protein),0.107,0.143,0.294,0.0656,0.137
L1CAM (L1 cell adhesion molecule),0.147,0.275,0.172,0.00457,0.208
SMAD2 (SMAD family member 2),0.178,0.0395,0.325,0.0261,0.231
TMX4 (thioredoxin related transmembrane protein 4),0.106,0.0882,0.221,0.0264,0.178
MATCAP2 (microtubule associated tyrosine carboxypeptidase 2),0.227,0.235,0.335,0.0427,0.249
SERPINA6 (serpin family A member 6),0.0918,0.116,0.244,0.00187,0.308
IRF2BP1 (interferon regulatory factor 2 binding protein 1),0.0851,0.262,0.467,0.0301,0.0477
SKIL (SKI like proto-oncogene),0.17,0.524,0.343,0.0194,0.214
FLYWCH1 (FLYWCH-type zinc finger 1),0.254,0.244,0.216,0.0943,0.456
B3GNT4,0.108,0.213,0.332,0.0229,0.349
SKIC8 (SKI8 subunit of superkiller complex),0.118,0.215,0.387,0.0122,0.0937
CDK5R2 (cyclin dependent kinase 5 regulatory subunit 2),0.111,0.103,0.315,0.0131,0.113

Sorted by “BNIP3L mRNA, set 1” (ascending): 3 of the entries above
target,"BNIP3L mRNA, set 1","NDRG1 mRNA, set 1","BNIP3 mRNA, set 1","ALDOC mRNA, set 1","ACSL5 mRNA, set 1"
RAP1GAP (RAP1 GTPase activating protein),0.107,0.143,0.294,0.0656,0.137
L1CAM (L1 cell adhesion molecule),0.147,0.275,0.172,0.00457,0.208
SMAD2 (SMAD family member 2),0.178,0.0395,0.325,0.0261,0.231
